Values from PubChem BioAssay AID1508597 (Cure First, 2020)

Assay: 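Survival screen with siRNA in ovarian cancer cells derived from patients, with or without rucaparib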 (primary screen)
Cells: human ovarian carcinoma lines grown from tumours: OCI-P5x (papillary serous) and OCI-C5x (clear cell)
Reagents: siRNA pool against human genes, 1.25 pmol siRNA per well
Time to read-out: 72 h or 96 h, depending on the cell culture
Challenge: rucaparib 20 µM (about IC30) or vehicle, present until read-out
Detection: 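ATP luminescence measured at 72 or 96 h according to the culture, then normalised and expressed as percent viability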
Direction: viability, normalised: higher = more viable cells remaining
Active means: 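a well counts as a hit if its normalised viability is under 80 percent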
Meaning of the calls: active = viability under 80%; inactive = viability 80% or more
In all, the deposit lists about 2,100 reagents; below is a random part of them. 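Calls flag viability under 80% in either arm, not effects specific to rucaparib; the reference for percent is not stated.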 Some reagents were tested in more than one well and are listed for each. Not given: the 100% reference.

viability, normalised (%) | outcome | gene knocked down | rucaparib or vehicle | cell line | technical replicate
69.8 | active | TRIM68 (GeneID 55128) | Rucaparib | OCI-C5x (clear cell) | 1
51.1 | active | TRIM68 (GeneID 55128) | Rucaparib | OCI-C5x (clear cell) | 2
46 | active | TRIM68 (GeneID 55128) | Rucaparib | OCI-C5x (clear cell) | 3
51.1 | active | TRIM68 (GeneID 55128) | Rucaparib | OCI-P5x (serous) | 1
61.2 | active | TRIM68 (GeneID 55128) | Rucaparib | OCI-P5x (serous) | 2
51.8 | active | TRIM68 (GeneID 55128) | Rucaparib | OCI-P5x (serous) | 3
48 | active | TRIM68 (GeneID 55128) | Vehicle | OCI-C5x (clear cell) | 1
44.2 | active | TRIM68 (GeneID 55128) | Vehicle | OCI-C5x (clear cell) | 2
59 | active | TRIM68 (GeneID 55128) | Vehicle | OCI-C5x (clear cell) | 3
65.4 | active | TRIM68 (GeneID 55128) | Vehicle | OCI-P5x (serous) | 1
79.1 | active | TRIM68 (GeneID 55128) | Vehicle | OCI-P5x (serous) | 2
78.9 | active | TRIM68 (GeneID 55128) | Vehicle | OCI-P5x (serous) | 3
40.2 | active | JARID2 (GeneID 3720) | Rucaparib | OCI-C5x (clear cell) | 1
36.2 | active | JARID2 (GeneID 3720) | Rucaparib | OCI-C5x (clear cell) | 2
33.1 | active | JARID2 (GeneID 3720) | Rucaparib | OCI-C5x (clear cell) | 3
59.8 | active | JARID2 (GeneID 3720) | Rucaparib | OCI-P5x (serous) | 1
67.5 | active | JARID2 (GeneID 3720) | Rucaparib | OCI-P5x (serous) | 2
23.2 | active | JARID2 (GeneID 3720) | Rucaparib | OCI-P5x (serous) | 3
48.6 | active | JARID2 (GeneID 3720) | Vehicle | OCI-C5x (clear cell) | 1
34.6 | active | JARID2 (GeneID 3720) | Vehicle | OCI-C5x (clear cell) | 2
47.2 | active | JARID2 (GeneID 3720) | Vehicle | OCI-C5x (clear cell) | 3
69.7 | active | JARID2 (GeneID 3720) | Vehicle | OCI-P5x (serous) | 1
69.2 | active | JARID2 (GeneID 3720) | Vehicle | OCI-P5x (serous) | 2
79.5 | active | JARID2 (GeneID 3720) | Vehicle | OCI-P5x (serous) | 3
48.2 | active | BRD4 (GeneID 23476) | Rucaparib | OCI-C5x (clear cell) | 1
48.4 | active | BRD4 (GeneID 23476) | Rucaparib | OCI-C5x (clear cell) | 1
60.2 | active | BRD4 (GeneID 23476) | Rucaparib | OCI-C5x (clear cell) | 1
67.1 | active | BRD4 (GeneID 23476) | Rucaparib | OCI-C5x (clear cell) | 1
59.6 | active | BRD4 (GeneID 23476) | Rucaparib | OCI-C5x (clear cell) | 2
52.9 | active | BRD4 (GeneID 23476) | Rucaparib | OCI-C5x (clear cell) | 2
53.8 | active | BRD4 (GeneID 23476) | Rucaparib | OCI-C5x (clear cell) | 2
43.3 | active | BRD4 (GeneID 23476) | Rucaparib | OCI-C5x (clear cell) | 2
58.1 | active | BRD4 (GeneID 23476) | Rucaparib | OCI-C5x (clear cell) | 3
54.1 | active | BRD4 (GeneID 23476) | Rucaparib | OCI-C5x (clear cell) | 3
49 | active | BRD4 (GeneID 23476) | Rucaparib | OCI-C5x (clear cell) | 3
44.7 | active | BRD4 (GeneID 23476) | Rucaparib | OCI-C5x (clear cell) | 3
74.2 | active | BRD4 (GeneID 23476) | Rucaparib | OCI-P5x (serous) | 1
44.1 | active | BRD4 (GeneID 23476) | Rucaparib | OCI-P5x (serous) | 1
136 | inactive | BRD4 (GeneID 23476) | Rucaparib | OCI-P5x (serous) | 1
49.6 | active | BRD4 (GeneID 23476) | Rucaparib | OCI-P5x (serous) | 1
114 | inactive | BRD4 (GeneID 23476) | Rucaparib | OCI-P5x (serous) | 2
50.2 | active | BRD4 (GeneID 23476) | Rucaparib | OCI-P5x (serous) | 2
57.4 | active | BRD4 (GeneID 23476) | Rucaparib | OCI-P5x (serous) | 2
42.6 | active | BRD4 (GeneID 23476) | Rucaparib | OCI-P5x (serous) | 2
71.9 | active | BRD4 (GeneID 23476) | Rucaparib | OCI-P5x (serous) | 3
120 | inactive | BRD4 (GeneID 23476) | Rucaparib | OCI-P5x (serous) | 3
45.7 | active | BRD4 (GeneID 23476) | Rucaparib | OCI-P5x (serous) | 3
47.7 | active | BRD4 (GeneID 23476) | Rucaparib | OCI-P5x (serous) | 3
41.6 | active | BRD4 (GeneID 23476) | Vehicle | OCI-C5x (clear cell) | 1
84.3 | inactive | BRD4 (GeneID 23476) | Vehicle | OCI-C5x (clear cell) | 1
59.6 | active | BRD4 (GeneID 23476) | Vehicle | OCI-C5x (clear cell) | 1
59.3 | active | BRD4 (GeneID 23476) | Vehicle | OCI-C5x (clear cell) | 1
53.8 | active | BRD4 (GeneID 23476) | Vehicle | OCI-C5x (clear cell) | 2
67.6 | active | BRD4 (GeneID 23476) | Vehicle | OCI-C5x (clear cell) | 2
39.7 | active | BRD4 (GeneID 23476) | Vehicle | OCI-C5x (clear cell) | 2
58.6 | active | BRD4 (GeneID 23476) | Vehicle | OCI-C5x (clear cell) | 2
70.1 | active | BRD4 (GeneID 23476) | Vehicle | OCI-C5x (clear cell) | 3
63.8 | active | BRD4 (GeneID 23476) | Vehicle | OCI-C5x (clear cell) | 3
46.4 | active | BRD4 (GeneID 23476) | Vehicle | OCI-C5x (clear cell) | 3
50.5 | active | BRD4 (GeneID 23476) | Vehicle | OCI-C5x (clear cell) | 3
57.5 | active | BRD4 (GeneID 23476) | Vehicle | OCI-P5x (serous) | 1
64.5 | active | BRD4 (GeneID 23476) | Vehicle | OCI-P5x (serous) | 1
138 | inactive | BRD4 (GeneID 23476) | Vehicle | OCI-P5x (serous) | 1
71.1 | active | BRD4 (GeneID 23476) | Vehicle | OCI-P5x (serous) | 1
56.5 | active | BRD4 (GeneID 23476) | Vehicle | OCI-P5x (serous) | 2
69.2 | active | BRD4 (GeneID 23476) | Vehicle | OCI-P5x (serous) | 2
64.1 | active | BRD4 (GeneID 23476) | Vehicle | OCI-P5x (serous) | 2
132 | inactive | BRD4 (GeneID 23476) | Vehicle | OCI-P5x (serous) | 2
74.4 | active | BRD4 (GeneID 23476) | Vehicle | OCI-P5x (serous) | 3
57.2 | active | BRD4 (GeneID 23476) | Vehicle | OCI-P5x (serous) | 3
107 | inactive | BRD4 (GeneID 23476) | Vehicle | OCI-P5x (serous) | 3
66.9 | active | BRD4 (GeneID 23476) | Vehicle | OCI-P5x (serous) | 3
